Reference: article PMC7492734
No constants are given. Whether binding was seen depends on the method and setting. Binding seen in cells or lysates may run through a third protein. A result given as binding can be weak or reduced; the word gives no strength.

Amino acid sequences for entries named in this document (tags omitted). A change or cut given only in a name is not applied to a line headed by its entry. Residues count along the entry.
UniProt P05187: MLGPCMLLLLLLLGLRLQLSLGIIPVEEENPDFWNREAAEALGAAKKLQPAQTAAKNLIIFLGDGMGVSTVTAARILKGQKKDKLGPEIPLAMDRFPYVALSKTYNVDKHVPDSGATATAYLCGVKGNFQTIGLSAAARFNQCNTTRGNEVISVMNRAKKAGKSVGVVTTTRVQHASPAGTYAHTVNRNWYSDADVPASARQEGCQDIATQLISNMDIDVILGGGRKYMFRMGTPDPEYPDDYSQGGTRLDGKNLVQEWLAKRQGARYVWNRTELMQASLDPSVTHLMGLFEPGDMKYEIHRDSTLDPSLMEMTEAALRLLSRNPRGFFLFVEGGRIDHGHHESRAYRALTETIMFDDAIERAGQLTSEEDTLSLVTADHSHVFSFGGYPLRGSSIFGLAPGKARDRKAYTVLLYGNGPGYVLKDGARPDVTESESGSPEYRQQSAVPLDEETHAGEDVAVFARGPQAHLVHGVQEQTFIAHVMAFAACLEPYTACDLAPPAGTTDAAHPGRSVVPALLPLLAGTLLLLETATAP
UniProt P11021, residues 19-654: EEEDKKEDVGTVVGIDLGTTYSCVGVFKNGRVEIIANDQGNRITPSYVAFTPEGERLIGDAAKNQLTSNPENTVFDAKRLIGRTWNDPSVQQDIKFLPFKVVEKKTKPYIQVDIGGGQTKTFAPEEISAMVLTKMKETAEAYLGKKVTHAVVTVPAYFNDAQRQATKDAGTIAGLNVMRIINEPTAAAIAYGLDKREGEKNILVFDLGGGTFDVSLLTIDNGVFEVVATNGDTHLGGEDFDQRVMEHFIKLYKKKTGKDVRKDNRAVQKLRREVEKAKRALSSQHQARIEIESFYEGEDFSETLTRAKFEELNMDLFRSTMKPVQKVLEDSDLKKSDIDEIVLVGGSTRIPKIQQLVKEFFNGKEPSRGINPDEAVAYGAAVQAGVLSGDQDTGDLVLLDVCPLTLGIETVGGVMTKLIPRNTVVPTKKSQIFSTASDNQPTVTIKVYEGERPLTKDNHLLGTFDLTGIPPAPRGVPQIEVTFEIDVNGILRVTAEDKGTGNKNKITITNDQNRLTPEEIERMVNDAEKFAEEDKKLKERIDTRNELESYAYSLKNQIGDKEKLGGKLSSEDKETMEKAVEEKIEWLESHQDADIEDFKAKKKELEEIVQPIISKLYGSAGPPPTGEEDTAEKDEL

What was measured:
[1] = target: C-terminal 2×Flag-tagged placental alkaline phosphatase (ALPP-2×Flag) (human) (UniProt P05187); assay: co-IP; Flag-ALPP 293T cells, Flag-ALPP as bait; silver and Coomassie staining
[2] = target: C-terminal 2×Flag-tagged placental alkaline phosphatase (ALPP-2×Flag) (human) (UniProt P05187); assay: co-IP; Flag-ALPP JEG-3 cells and Flag control cells, Flag-ALPP as bait; immunoblot with anti-Flag or anti-BIP
[3] = target: C-terminal 2×Flag-tagged placental alkaline phosphatase (ALPP-2×Flag) (human) (UniProt P05187); assay: co-IP; U-251 MG cells stably expressing Flag-tagged ALPP, mock infected or infected with ZIKV for 24 h; lysate on anti-Flag M2 affinity gel overnight at 4°C, five washes, eluted with 3×Flag peptide; immunoblot

Measured: binding

BIP (GRP78), endogenous (from UniProt P11021 19-654)
binds: all assays above
